Reference: PubChem BioAssay AID1259308 (NCATS, 2017)
In all, the deposit lists about 59,000 reagents; shown is an unselected part. About 1,510 of all reagents (2.6%) count as active. 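Calls use total luciferase alone and ignore viability, so some active siRNAs may act by altering cell number.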 Further read-outs or replicates are left out here.

Assay: 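Knock-downs that increase output of a recombinant reporter protein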 (primary screen)
Cells: human HEK293 embryonic kidney cells stably expressing firefly luciferase (HEK-CMV-Luc2-Hygro)
Reagents: single siRNA against human genes, 0.8 pmol siRNA per well
Time to read-out: 72 h
Measurement: 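Reporter luminescence and viable-cell signal on separate replicate plates, given as percent of non-targeting control and median/MAD z-scores, plus per-cell luciferase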
Direction: total luciferase, z-score: higher = more reporter protein produced
Call rule: 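Active when the median/MAD z-score for overall luciferase is greater than 3; a gene was taken forward for validation with new siRNAs if at least two of its three siRNAs passed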
Meaning of the calls: active = raised luciferase; inactive = no rise

| gene knocked down | PubChem SID | total luciferase, z-score | activity call |
| --- | --- | --- | --- |
| H2AZ1 (H2A.Z variant histone 1) | SID160774809 | 0.172 | inactive |
| H2AZ1 (H2A.Z variant histone 1) | SID160774810 | 1.46 | inactive |
| H2AZ1 (H2A.Z variant histone 1) | SID160774811 | -0.587 | inactive |
| TRIM5 (tripartite motif containing 5) | SID160753205 | -0.593 | inactive |
| TRIM5 (tripartite motif containing 5) | SID160753206 | -1.57 | inactive |
| TRIM5 (tripartite motif containing 5) | SID160753207 | 0.0637 | inactive |
| TTL (tubulin tyrosine ligase) | SID160758975 | 0.199 | inactive |
| TTL (tubulin tyrosine ligase) | SID160758976 | -1.67 | inactive |
| TTL (tubulin tyrosine ligase) | SID160758977 | -0.133 | inactive |
| FOXG1 (forkhead box G1) | SID160765891 | 0.197 | inactive |
| FOXG1 (forkhead box G1) | SID160765901 | 1.26 | inactive |
| FOXG1 (forkhead box G1) | SID160765912 | 0.823 | inactive |
| OR8K3 | SID160761273 | 0.162 | inactive |
| OR8K3 | SID160761274 | 1.88 | inactive |
| OR8K3 | SID160761275 | 1.12 | inactive |
| LAMC1 (laminin subunit gamma 1) | SID160776510 | 0.0487 | inactive |
| LAMC1 (laminin subunit gamma 1) | SID160776511 | -0.488 | inactive |
| LAMC1 (laminin subunit gamma 1) | SID160776512 | -3.45 | inactive |
| IGF2BP2 (insulin like growth factor 2 mRNA binding protein 2) | SID160728947 | -1.16 | inactive |
| IGF2BP2 (insulin like growth factor 2 mRNA binding protein 2) | SID160728948 | 0.0444 | inactive |
| IGF2BP2 (insulin like growth factor 2 mRNA binding protein 2) | SID160728949 | 1.51 | inactive |
| SIRPD (signal regulatory protein delta) | SID160756788 | -0.036 | inactive |
| SIRPD (signal regulatory protein delta) | SID160756789 | -0.307 | inactive |
| SIRPD (signal regulatory protein delta) | SID160756790 | 0.0436 | inactive |
| NELFB (negative elongation factor complex member B) | SID160737253 | 3.35 | active |
| NELFB (negative elongation factor complex member B) | SID160737254 | -0.778 | inactive |
| NELFB (negative elongation factor complex member B) | SID160737255 | 2.64 | inactive |
| COIL (coilin) | SID160719674 | -0.61 | inactive |
| COIL (coilin) | SID160719675 | -0.799 | inactive |
| COIL (coilin) | SID160719676 | 1.78 | inactive |
| DLL3 (delta like canonical Notch ligand 3) | SID160729039 | -1 | inactive |
| DLL3 (delta like canonical Notch ligand 3) | SID160729040 | -2.86 | inactive |
| DLL3 (delta like canonical Notch ligand 3) | SID160729042 | 0.322 | inactive |
| THUMPD1 (THUMP domain 1 NAT10 acetyltransferase adaptor) | SID160743928 | -0.863 | inactive |
| THUMPD1 (THUMP domain 1 NAT10 acetyltransferase adaptor) | SID160743929 | 1.67 | inactive |
| THUMPD1 (THUMP domain 1 NAT10 acetyltransferase adaptor) | SID160743930 | -0.321 | inactive |
| COL6A4P1 (collagen type VI alpha 4 pseudogene 1) | SID160764816 | 0.379 | inactive |
| COL6A4P1 (collagen type VI alpha 4 pseudogene 1) | SID160764817 | -0.0305 | inactive |
| COL6A4P1 (collagen type VI alpha 4 pseudogene 1) | SID160764818 | -0.793 | inactive |
| COL6A4P1 (collagen type VI alpha 4 pseudogene 1) | SID160774189 | -0.771 | inactive |
| COL6A4P1 (collagen type VI alpha 4 pseudogene 1) | SID160774190 | 2.77 | inactive |
| COL6A4P1 (collagen type VI alpha 4 pseudogene 1) | SID160774191 | 1.63 | inactive |
| SPATA12 (spermatogenesis associated 12) | SID160765185 | -0.397 | inactive |
| SPATA12 (spermatogenesis associated 12) | SID160765186 | -0.135 | inactive |
| SPATA12 (spermatogenesis associated 12) | SID160765187 | -3.01 | inactive |
| KRTAP5-10 (keratin associated protein 5-10) | SID160725174 | -0.417 | inactive |
| KRTAP5-10 (keratin associated protein 5-10) | SID160733181 | 1.42 | inactive |
| KRTAP5-10 (keratin associated protein 5-10) | SID160733182 | 0.411 | inactive |
| FAM89B (family with sequence similarity 89 member B) | SID160736705 | -1.53 | inactive |
| FAM89B (family with sequence similarity 89 member B) | SID160736706 | 3.24 | active |
| FAM89B (family with sequence similarity 89 member B) | SID160736707 | 0.152 | inactive |
| STYXL2 (serine/threonine/tyrosine interacting like 2) | SID160754219 | 3.49 | active |
| STYXL2 (serine/threonine/tyrosine interacting like 2) | SID160754220 | -0.822 | inactive |
| STYXL2 (serine/threonine/tyrosine interacting like 2) | SID160754221 | -0.497 | inactive |
| SYT17 (synaptotagmin 17) | SID160741320 | 2.2 | inactive |
| SYT17 (synaptotagmin 17) | SID160741321 | 1.43 | inactive |
| SYT17 (synaptotagmin 17) | SID160741322 | -0.192 | inactive |
| OR10V1 (olfactory receptor family 10 subfamily V member 1) | SID160766447 | 1.47 | inactive |
| OR10V1 (olfactory receptor family 10 subfamily V member 1) | SID160766448 | -0.472 | inactive |
| OR10V1 (olfactory receptor family 10 subfamily V member 1) | SID160766450 | -1.54 | inactive |
| FGF6 (fibroblast growth factor 6) | SID160732720 | 1.16 | inactive |
| FGF6 (fibroblast growth factor 6) | SID160765090 | 0.548 | inactive |
| FGF6 (fibroblast growth factor 6) | SID160765110 | -0.2 | inactive |
| CCNDBP1 (cyclin D1 binding protein 1) | SID160736604 | -0.501 | inactive |
| CCNDBP1 (cyclin D1 binding protein 1) | SID160736605 | 0.0379 | inactive |
| CCNDBP1 (cyclin D1 binding protein 1) | SID160736606 | -0.665 | inactive |
| CAPN3 (calpain 3) | SID160736279 | -0.312 | inactive |
| CAPN3 (calpain 3) | SID160736289 | -3.15 | inactive |
| CAPN3 (calpain 3) | SID160736297 | -0.651 | inactive |
| ODAD4 (outer dynein arm docking complex subunit 4) | SID160751171 | 0.436 | inactive |
| ODAD4 (outer dynein arm docking complex subunit 4) | SID160751172 | 0.153 | inactive |
| ODAD4 (outer dynein arm docking complex subunit 4) | SID160751173 | 3.05 | active |
| GPR155 (G protein-coupled receptor 155) | SID160759125 | 0.111 | inactive |
| GPR155 (G protein-coupled receptor 155) | SID160759126 | -0.175 | inactive |
| GPR155 (G protein-coupled receptor 155) | SID160759127 | 0.58 | inactive |
